# The list shows a part of the results.
# Target: T1, OsSMF1 (Oryza sativa, UniProt Q6ZLB0 1-436)
# T1 sequence: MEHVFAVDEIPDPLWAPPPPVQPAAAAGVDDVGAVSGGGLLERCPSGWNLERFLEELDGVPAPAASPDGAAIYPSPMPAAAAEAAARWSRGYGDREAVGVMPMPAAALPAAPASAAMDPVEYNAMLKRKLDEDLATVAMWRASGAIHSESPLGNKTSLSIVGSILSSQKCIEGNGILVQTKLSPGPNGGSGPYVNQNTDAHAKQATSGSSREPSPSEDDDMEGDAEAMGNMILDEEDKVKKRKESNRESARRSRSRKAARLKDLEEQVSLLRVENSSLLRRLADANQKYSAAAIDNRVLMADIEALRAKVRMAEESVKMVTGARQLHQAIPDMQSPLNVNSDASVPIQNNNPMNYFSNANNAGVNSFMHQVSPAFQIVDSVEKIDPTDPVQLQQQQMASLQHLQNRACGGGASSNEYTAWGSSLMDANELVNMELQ
# Assay: protein-binding microarray (RPBM); PBS, 2% BSA, 51.3 ng/ul salmon testes DNA, 50 uM zinc acetate, 200 nM TF, 25 C, 1 h; high values mean tight binding
# Settings: protein: recombinant; tags: N-terminal polyhistidine and DsRed monomer fusion (pET32a); chain copies: 2; label: CyDye5-dUTP incorporated in the synthesized complementary strand; 3' TTTTT single-stranded linker to array surface; dsDNA, one strand shown
# How it was run: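 Binding signal here means per-feature fluorescence intensity in arbitrary units. The values were read on an Axon 4000B scanner after a custom Agilent array, double-stranded by primer extension with Cy5-dUTP, was incubated with 200 nM protein at 25 °C for 1 h in PBS with 2% BSA, salmon testes DNA and 50 µM zinc acetate, then washed. The proteins were transcription factors with an N-terminal polyhistidine tag and DsRed, expressed in E. coli BL21-CodonPlus and purified on Ni–NTA.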
row,Sequence,binding signal
1,CGGCCCCGGCGCGCGTCGGCATGTGACGTCCCACGTGCGCCGGAGTCACCTAGTGCAG,6620 fluorescence intensity (a.u.)
2,TGCGTGTCTATTATACTACGTCATAGCGACCGCCAAAATACGGAGTCACCTAGTGCAG,3610 fluorescence intensity (a.u.)
3,TATCGCCTATCGTCCTCCGCTATGGGTTGTCATCCCCTAGCGGAGTCACCTAGTGCAG,3740 fluorescence intensity (a.u.)
4,CCACAAACGTGGCAAAGATTGACACCGAATCTCTGACGTGCGGAGTCACCTAGTGCAG,4280 fluorescence intensity (a.u.)
5,ACGGGAAGCTGCTAGTTTGTGATATTCTTGTTCTACCTAACGGAGTCACCTAGTGCAG,3220 fluorescence intensity (a.u.)
6,CTCTCTCTCTCTCTGTTGTGTCAGTGTGTGTGCGTGGCTTCGGAGTCACCTAGTGCAG,5180 fluorescence intensity (a.u.)
7,CGCAGGGGAAGTCGCGGAGGCCCGTGAACAGGTGGGCGAGCGGAGTCACCTAGTGCAG,3460 fluorescence intensity (a.u.)
8,GCAGGTGCCAACGAATATTATGACTCACAATAGTACACTGCGGAGTCACCTAGTGCAG,5890 fluorescence intensity (a.u.)
9,TGTATTTTCTGACGTTGGTAGCACGGTAGCACCCGATATTCGGAGTCACCTAGTGCAG,4250 fluorescence intensity (a.u.)
10,CACCCGTTTCCGACGGCGATGGCGAGACCCCGTGTCGCCGCGGAGTCACCTAGTGCAG,3710 fluorescence intensity (a.u.)
11,GTAGCGGCTGCGGCGCTCCAGCTCCTCGGAGGCCCGGTCCCGGAGTCACCTAGTGCAG,3790 fluorescence intensity (a.u.)
12,CGCCCTCGCTTCCTCTCCTGGATCGAGATCGCGTCATCGCCGGAGTCACCTAGTGCAG,4900 fluorescence intensity (a.u.)
13,GGTCGTATGATGTAAGATCCAGGAAATTGTTCTTGTTGCCCGGAGTCACCTAGTGCAG,3160 fluorescence intensity (a.u.)
14,AATCCTACGTCTCCAATCCTACGTGTGAAATCATCCGGATCGGAGTCACCTAGTGCAG,7120 fluorescence intensity (a.u.)
15,AAAACTTGCAACTGCAATTCATGTCAATTTGCCACATCACCGGAGTCACCTAGTGCAG,13200 fluorescence intensity (a.u.)
16,AATATTGTTAACCCTATGACGTTGCATGTGGATTTTGCTGCGGAGTCACCTAGTGCAG,10100 fluorescence intensity (a.u.)
17,AGAAATCAATGACAAAACATTTGTACCGGAGGCGGTAATACGGAGTCACCTAGTGCAG,3220 fluorescence intensity (a.u.)
18,TCTAAAGAAATTTTCTCTGTCAATAGATGATTCCATCACCCGGAGTCACCTAGTGCAG,6070 fluorescence intensity (a.u.)
19,AAACAAGCACAACGTTTAGCCACGTCATCAAAATAGTTTCCGGAGTCACCTAGTGCAG,17700 fluorescence intensity (a.u.)
20,AGCACTGCCCACACTGCCAAAATATGCCATATGTTATCCTCGGAGTCACCTAGTGCAG,3220 fluorescence intensity (a.u.)
21,GGACTCAGCGTCGCCGCTCCTTGGGCCACGTCAGCGCTCACGGAGTCACCTAGTGCAG,35600 fluorescence intensity (a.u.)

# Looked up above.
# AGAAATCAATGACAAAACATTTGTACCGGAGGCGGTAATACGGAGTCACCTAGTGCAG | binding signal: 3220 fluorescence intensity (a.u.)
# CACCCGTTTCCGACGGCGATGGCGAGACCCCGTGTCGCCGCGGAGTCACCTAGTGCAG | binding signal: 3710 fluorescence intensity (a.u.)
# GCAGGTGCCAACGAATATTATGACTCACAATAGTACACTGCGGAGTCACCTAGTGCAG | binding signal: 5890 fluorescence intensity (a.u.)

# Going on with the list.

row,Sequence,binding signal
1,GCACAGCCTCACAGGACGAGCCGCCGCTCACCGCCGGCACCGGAGTCACCTAGTGCAG,23300 fluorescence intensity (a.u.)
2,GTGCGTGGGTGCGTGACTGCGTATAGGGGCCACGACCCGCCGGAGTCACCTAGTGCAG,3180 fluorescence intensity (a.u.)
3,GAATTACATTGCATTGTTCGTTAAAGAGTAGATTCATACACGGAGTCACCTAGTGCAG,29200 fluorescence intensity (a.u.)
4,CATCAATTCAAGTAGATTCAAACATAGAGTGGAATTGGACCGGAGTCACCTAGTGCAG,32000 fluorescence intensity (a.u.)
5,CGTACTCACCACCTGCCCCTTGTCATCGTCCTCCTCAAGGCGGAGTCACCTAGTGCAG,4190 fluorescence intensity (a.u.)
6,AGTAGCGGCGTGTACATGCGCCAACTGCCCACGCGGCCGCCGGAGTCACCTAGTGCAG,4510 fluorescence intensity (a.u.)
7,TGTACGCCACTTAATTTTGCTCGTAACATACATTGACAATCGGAGTCACCTAGTGCAG,3160 fluorescence intensity (a.u.)
8,CATTTCATATCAGAAGTGTGATCACTGTAACCCGCGGCGCCGGAGTCACCTAGTGCAG,64500 fluorescence intensity (a.u.)
9,GGCCGTGACGGCGTGTCGTCCGCGTGTGCGCGCGATATCTCGGAGTCACCTAGTGCAG,5080 fluorescence intensity (a.u.)
10,GAGTCAGGTAGACGCGCCGCGGCGTGGCACGGAGGAGACACGGAGTCACCTAGTGCAG,3300 fluorescence intensity (a.u.)
11,CGCATCCACTGCGGCGCGTCCACGCGTACGCCGCGGCAGCCGGAGTCACCTAGTGCAG,5740 fluorescence intensity (a.u.)
12,ACATAATAGACTATTAGAGCACCCGCAATAGTAAAGTAAGCGGAGTCACCTAGTGCAG,23000 fluorescence intensity (a.u.)
13,GATGTTTCAACACGTTGGAAGTATTTGATCCGACCCTATTCGGAGTCACCTAGTGCAG,4010 fluorescence intensity (a.u.)
14,ATAATTATTTGTTTTCAGTCATGTATCTTCATCTTATACACGGAGTCACCTAGTGCAG,29600 fluorescence intensity (a.u.)
15,CAATAATAGGATTAGAATGAAGAAAGCACCCCTGAGCTTGCGGAGTCACCTAGTGCAG,3420 fluorescence intensity (a.u.)
16,ATTAGCTTTCTTTCATTTTCTCCCTCTGCGAGCAGAGGAACGGAGTCACCTAGTGCAG,3180 fluorescence intensity (a.u.)
17,CCTGCGTGCGTGCCAACGTGGCCGTGTAAAAGCCGCCTCACGGAGTCACCTAGTGCAG,7480 fluorescence intensity (a.u.)
18,CGTACGTATCTCTTGTTCTCCTCGCGTCAGCGACCAACGGCGGAGTCACCTAGTGCAG,5010 fluorescence intensity (a.u.)
19,ACAACCCACTCCCACCTAGCTCAACCTCACGCTCAAGCTGCGGAGTCACCTAGTGCAG,3440 fluorescence intensity (a.u.)
20,CATTCCCCTCTCCCCAATTTACCATACACACATGGATGTACGGAGTCACCTAGTGCAG,3640 fluorescence intensity (a.u.)
21,GTGCTCTTTAATTATCACTTTGTGCGCACTTTTCTTTGATCGGAGTCACCTAGTGCAG,33900 fluorescence intensity (a.u.)

# — paper PMC7819943, “Rice protein-binding microarrays: a tool to detect cis-acting elements near promoter regions in rice”
